# From PubChem BioAssay AID493014 (National Center for Advancing Translational Sciences (NCATS), 2011)
# The list shows a part of the results. The main result of the screen is listed elsewhere. These columns were measured beside it and carry no call. Compounds called inactive in the main read-out are mostly missing here. The note in brackets gives the kind of curve behind each potency; many fits are weak.
# Assay: qHTS Assay to Find Inhibitors of Chronic Active B-Cell Receptor Signaling
# Conditions: ABC-DLBCL IkBa-CBG/CBR reporter, luminescence ratio (green luciferase fused to IkBa over red control in TMD8 lymphoma cells), 4 h
# How it was run: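 TMD8 ABC-DLBCL cells carrying doxycycline-inducible green luciferase fused to IkappaBalpha plus unfused red luciferase were exposed to compounds (up to 46 uM) for 4 hrs at 37C. Activity came from the overlap-corrected green/red luminescence ratio.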
# [1] = measured here: CBR red luminescence, cell number
# [2] = measured here: IkBa-CBG green luminescence
SMILES,AC50 [1],AC50 [2]
O=c1c2ccccc2nc2n1C(CSCc1cccc(C(F)(F)F)c1)CS2 (configuration not stated),"3.16 µM [falling, full curve, poor fit]",
COc1ccc(Cl)cc1N(CC(=O)Nc1ccccc1C(=O)NCc1ccco1)S(C)(=O)=O,"16.4 µM [falling, partial curve, poor fit]",
CC(=O)Nc1cccc(OCc2cnc(Cl)s2)c1,"22.4 µM [rising, single point]",
c1ccc(-c2nnc(-c3c[nH]c4ccccc34)nc2-c2ccccc2)cc1,"1.84 µM [rising, full curve, poor fit]",
Cc1ccc(NC(=O)CSc2ncnc3ccccc23)cc1S(=O)(=O)N1CCCCCC1,"4.11 µM [falling, partial curve]",
CCCCCCOc1ccc(N2C(=O)CC(N(CCc3ccc(S(N)(=O)=O)cc3)C(C)=O)C2=O)cc1 (configuration not stated),"12.6 µM [falling, partial curve]",
O=C(/C=C/c1ccccc1)NCCSCc1ccccc1Cl,"2.91 µM [rising, partial curve, poor fit]",
COc1ccccc1-c1nc(NC(C)=O)n[nH]1,"10 µM [falling, partial curve]",
CCOC(=O)Cc1csc(N/N=C\c2ccc(N(C)C)cc2)n1,"35.5 µM [rising, single point]",
O=C(CSC1=NS(=O)(=O)c2cc(Cl)ccc2N1)Nc1ccccc1F,"25.9 µM [falling, single point]",
Cn1c(SCC(=O)Nc2ccc3c(c2)oc2ccccc23)nnc1-c1ccccc1,"1.64 µM [rising, partial curve, poor fit]",
COc1cc(/C=N/n2c(C3CCCCC3)n[nH]c2=S)cc(OC)c1O,"0.562 µM [rising, full curve, poor fit]",
COc1cccc(CN2CCN(Cc3nc4c(s3)CCCC4)CC2CCO)c1 (configuration not stated),"35.5 µM [rising, single point]",
CC(C)NC(=O)C(=O)NCCc1ccc(Cl)cc1,"7.31 µM [rising, partial curve, poor fit]",
C=CCc1cccc2cc(C(=O)NCc3ccc(C(=O)OCC)o3)c(=O)oc12,"29.1 µM [rising, single point]",
Cc1cccc(N(Cc2ccccc2)C(=O)c2cccc(S(=O)(=O)N3CC(C)OC(C)C3)c2)c1 (configuration not stated),"2.91 µM [falling, partial curve]",
CCOC(=O)NC(=S)c1ccc[nH]1,"16.4 µM [rising, partial curve]",
c1ccc(Nc2scc(-c3ccccc3)[n+]2Cc2ccco2)cc1,"35.5 µM [falling, single point]",
O=C(CNc1cccc2ccccc12)N/N=C/c1ccc([N+](=O)[O-])o1,"0.184 µM [rising, full curve]",
Cc1n[nH]c(C)c1N1C(=O)c2cccc3c(N4CCCCCC4)ccc(c23)C1=O,"25.1 µM [falling, single point]",
Cc1nn(-c2ccccc2)c2nc(N)c(C#N)c(-c3ccc(O)c(O)c3)c12,"3.16 µM [falling, full curve, poor fit]",
Cc1cc(Oc2ccc3ccccc3c2)nc(SCC(=O)c2ccccc2)n1,"2.06 µM [rising, partial curve, poor fit]",

SMILES,AC50 [1],AC50 [2]
Cc1cc2cc3c(cc2nc1SCC(=O)OC(C)C)OCCO3,"20.6 µM [falling, single point]",
COC(=O)c1ccc(NC(=S)NN2CCCCC2c2cccnc2)cc1 (configuration not stated),"12.6 µM [rising, partial curve, poor fit]",
CCOc1ccc(C(=O)Nc2ccc(Cc3ccncc3)cc2)cc1Br,"35.5 µM [falling, single point]",
Cc1cc(N2CCC(C)CC2)nc(SCC(=O)c2ccccc2)n1,"6.51 µM [rising, single point]",
CC(=O)c1cccc(N2C(=NC(=O)CCc3ccccc3)SC3CS(=O)(=O)CC32)c1 (configuration not stated),"35.5 µM [rising, single point]",
COc1ccccc1-c1n[nH]c(=S)n1-c1ccccc1,"12.6 µM [falling, partial curve, poor fit]",
CNC(=S)N/N=C/c1cc(C)ccc1C,"11.2 µM [rising, partial curve, poor fit]","35.5 µM [falling, single point]"
CCOP(=O)(OCC)/C(=N/OC(=O)c1ccccc1C)C(N)=O,"13 µM [falling, partial curve, poor fit]",
Cc1ccc(/C=N/NC(=O)CSc2ccccn2)o1,"0.112 µM [rising, full curve, poor fit]",
CN(Cc1ccc(F)cc1)C(=O)COc1ccc2ccccc2c1,"11.2 µM [falling, partial curve]",
CNC(=S)NNC(=O)c1cccn(Cc2ccc(Cl)c(Cl)c2)c1=O,"14.1 µM [rising, partial curve]",
CCN1C(=O)/C(=C\c2cccs2)C(C(=O)OC)=C1C,"2.59 µM [falling, partial curve, poor fit]",
CSCCC1NC(=O)N(CC(=O)N2N=C(c3ccc(Cl)cc3)CC2c2ccco2)C1=O (configuration not stated),"35.5 µM [rising, single point]",
Cc1cc(C)cc(-n2c(SC(C)C(=O)NCc3ccc4c(c3)OCO4)nc3ccccc3c2=O)c1 (configuration not stated),"18.4 µM [falling, single point]","20.6 µM [rising, partial curve, poor fit]"
CC(=O)c1cc(C#N)c(Oc2cccc(C(F)(F)F)c2)nc1C,"5.01 µM [rising, partial curve]",
CCC(C)C(NC(=O)c1ccccc1NC(=O)c1ccccc1)C(=O)O (configuration not stated),"10 µM [falling, partial curve]",
COc1ccccc1NC(=O)c1sc2nc(Cc3ccccc3)cc(C(F)(F)F)c2c1N,"6.51 µM [rising, single point]",
CC1=C(C(N)=O)C(c2cccc(C)c2)n2nc(-c3ccc(Cl)cc3)nc2N1 (configuration not stated),"25.1 µM [falling, single point]",
c1ccc(C2c3[nH]c4ccccc4c3CCN2Cc2cccn2-c2ccccn2)nc1 (configuration not stated),"31.6 µM [falling, single point]",
Cc1ccccc1OCC(=O)NNC(=O)c1ccc(-n2cncn2)c([N+](=O)[O-])c1,"3.66 µM [rising, full curve, poor fit]",
CCOc1ccc(NC2=C(Cl)C(=O)N(Cc3ccccc3)C2=O)cc1,"8.91 µM [falling, partial curve, poor fit]",
CCC(CC)C(=O)Nc1cccc(C(=O)c2ccccc2)c1,"16.4 µM [rising, single point]",

# Some values from the results shown:
# AC50 [1], COc1ccccc1-c1n[nH]c(=S)n1-c1ccccc1 reads 12.6 µM [falling, partial curve, poor fit]
# AC50 [1], COC(=O)c1ccc(NC(=S)NN2CCCCC2c2cccnc2)cc1 (configuration not stated) reads 12.6 µM [rising, partial curve, poor fit]
# AC50 [1], CCOP(=O)(OCC)/C(=N/OC(=O)c1ccccc1C)C(N)=O reads 13 µM [falling, partial curve, poor fit]
# AC50 [1], CC(=O)c1cc(C#N)c(Oc2cccc(C(F)(F)F)c2)nc1C reads 5.01 µM [rising, partial curve]

# (listing goes on)

SMILES,AC50 [1],AC50 [2]
COC(=O)c1cnn(-c2ccc(F)cc2F)c1/C=N/NC(N)=S,"14.1 µM [falling, partial curve, poor fit]",
Cc1cccc(-n2c(-c3csc(C)c3)n[nH]c2=S)c1,"1.3 µM [falling, full curve, poor fit]",
Cc1ccc(C(O)P(=O)(OCc2ccccc2)c2ccc(N(C)C)cc2)cc1 (configuration not stated),"5.62 µM [falling, full curve, poor fit]",
COc1ccc(CCNC(=O)CN2CCN(c3ccccc3Cl)CC2)cc1,"16.4 µM [falling, single point]",
O=C1NN(c2ccc(Cl)c(Cl)c2)C(=O)/C1=C/c1ccc(-c2ccccc2C(=O)O)o1,"14.1 µM [falling, single point]",
Cc1sc(=NC(=O)c2ccco2)n(C)c1-c1ccc(F)cc1,"6.31 µM [falling, single point]",
COc1cc(C(=O)Oc2ccccc2N)cc(OC)c1OC,"16.4 µM [falling, partial curve]",
O=C(CS(=O)(=O)c1cn(Cc2ccc(F)cc2)c2ccccc12)N1CCOCC1,"11.2 µM [rising, partial curve, poor fit]",
Cc1ccc(Oc2ccc(-c3nc(N)nc(N)n3)cc2)cc1,"0.231 µM [rising, full curve, poor fit]",
NNC(=O)c1cn2ccccc2n1,"17.8 µM [falling, single point]",
O=C(N/N=C/c1ccncc1)c1nc2ccccc2c(=O)[nH]1,"12.6 µM [falling, single point]",
c1ccc(-c2nc(-n3nc4ccccc4n3)nc3ccccc23)cc1,"0.112 µM [rising, full curve, poor fit]",
CS(=O)(=O)N(Cc1ccc(C(=O)NN=C2CCCCCC2)cc1)c1ccccc1,"18.4 µM [falling, partial curve]",
O=C(Nc1ccccc1Cl)C1CCCN(S(=O)(=O)c2ccc(F)cc2)C1 (configuration not stated),"6.51 µM [falling, single point]",
CN(C)c1ccc(CNc2ncc(Br)cc2Br)cc1,"11.2 µM [rising, partial curve, poor fit]",
CCOC(=O)Cc1csc(NC(=O)CCS(=O)(=O)Cc2ccccc2)n1,"10.3 µM [falling, single point]","3.66 µM [rising, partial curve, poor fit]"
CCOC(=O)c1ccc(NC(=O)c2nc(S(=O)(=O)Cc3ccccc3)ncc2Cl)cc1,"10 µM [falling, partial curve]",
[2H]C(CCOS(N)(=O)=O)c1ccc(C(C)(C)C)cc1 (configuration not stated),"4.47 µM [falling, partial curve]",
COc1cc(C(=O)N/N=C/c2cccc(Oc3ccccc3)c2)ccc1O,"10 µM [falling, partial curve]",
O=c1c2c(nc3c(-c4cccc5ccccc45)c[nH]n13)CCC2,"2.31 µM [falling, full curve, poor fit]",
